Test results reported in paper PMC8265170.
No constants are given. Whether binding was seen depends on the method and setting. Binding seen in cells or lysates may run through a third protein. Some entries that bind do so weakly or less than the wild type.

By UniProt entry, the sequences of proteins in these tests, tags left out.
UniProt Q92905: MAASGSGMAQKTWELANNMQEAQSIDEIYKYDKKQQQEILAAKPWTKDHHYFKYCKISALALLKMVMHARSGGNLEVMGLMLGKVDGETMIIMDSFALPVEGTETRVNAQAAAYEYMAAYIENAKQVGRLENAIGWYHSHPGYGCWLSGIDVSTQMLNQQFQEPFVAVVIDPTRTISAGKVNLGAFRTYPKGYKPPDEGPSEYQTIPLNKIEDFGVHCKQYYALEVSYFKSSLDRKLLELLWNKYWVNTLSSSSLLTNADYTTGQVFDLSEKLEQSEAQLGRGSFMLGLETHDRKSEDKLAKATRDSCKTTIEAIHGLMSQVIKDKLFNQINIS

Target: T1, S100A7 (intracellular, in KYSE-30 and KYSE-150 cells) (human) (UniProt P31151)
T1 sequence: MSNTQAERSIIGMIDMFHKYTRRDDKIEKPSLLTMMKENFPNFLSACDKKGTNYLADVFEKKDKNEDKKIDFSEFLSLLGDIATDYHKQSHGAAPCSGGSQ
Assay: co-IP; anti-S100A7 co-immunoprecipitation from KYSE-30 and KYSE-150 cells, western blot for JAB1; beads only as blank control

binding: binds
Substance: C-Jun activation domain-binding protein-1 (JAB1) (from UniProt Q92905 1-334)
